Source: PubChem BioAssay AID1508600 (Functional Genomics Laboratory (NCATS/FGL), 2020)
Hit rate of the full screen: of about 53,000 sequences, about 3,700 (7%) were called active.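 How the source made its calls: active means gene knockdowns whose robust z-score for IL-1 alpha signal is at least 2 or at most -2, so actives lie on both sides; inactive means the rest.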 Some of the results follow.

assay: Components of the Cytosolic LPS Sensing Pathway: Gene Identification via Genome-wide siRNA Screen; conditions: RAW264.7 macrophages, IL-1a HTRF, actives lie on both sides, screened at 100 nM (by protocol), cells primed 5 h with Pam3CSK4 first;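 further: robust z of the log signal after scaling to non-targeting control siRNA wells of the plate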
In short: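 Mouse macrophage line RAW264.7 is transfected with siRNA (100 nM final), grown 48h, primed with TLR ligand Pam3CSK4 5 h and given intracellular LipidA 24 h. IL-1a in supernatant is read by HTRF and viability by luminescence.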

| Sequence | z-score |
| --- | --- |
| GGUUUCAAGACAUUGAAAGTT against Arl14ep | inactive: -0.424 |
| GGCAUCAAGCAAUUCACUCTT against Zfp455 | inactive: 1.14 |
| GGAAGUCACAGGGAUGUUGTT against Rbm45 | inactive: 1.51 |
| GCAUUGUCCGAGGUUUAUUTT against Tspan33 | inactive: 0.64 |
| GGGAAUUUUUGUGGGUGAATT against Bbs2 | inactive: -0.541 |
| CUUAGACCCAAUUCAAUUCTT against Zfp667 | inactive: -0.0845 |
| CCUCGGAUAAGGUUAUUGCTT against Smg6 | inactive: 0.767 |
| GCCUUCUCCCAUGUCUAAATT against Bmp15 | inactive: 0.342 |
| GGAGCUGAGAUCAAUUCAATT against Ankrd17 | inactive: 1.88 |
| GGUCAACGUAAAUUGUUCATT against Plppr5 | active: 2.94 |
| GCAAGAAAAUUGCACGUUGTT against Maco1 | inactive: 0.281 |
| CCUGGAAUCCCAAGAACAGTT against Thap1 | inactive: -0.0945 |
| GGGAACCUCUAUGACAAAATT against Nek9 | inactive: 0.723 |
| GGUCUCUCAUUACCACAUUTT against Olfr69 | inactive: 1.75 |
| GCGGAAUAUGUAAAAUCUCTT against Ppm1l | inactive: -0.447 |
| GGCCUUAUCUCCCACAUCATT against Gm4952 | inactive: 0.968 |
| GGAUCCUAGAAGCAGUUGCTT against Car4 | inactive: -0.283 |
| GUUCAUGUCUAUCCUGUCUTT against Hba-x | active: -2.45 |
| GGCCUAAAAAGCAACAUGUTT against Cuzd1 | inactive: 1.88 |
| GGAAUUUCUACGGAAACAATT against Myom2 | inactive: 1.23 |
| GGGCUAUGAGAAGUUGCUATT against Gnptg | inactive: 0.353 |
| CCUUCUCAUAGUGAAAGUATT against Zkscan5 | inactive: 1.05 |
| GGAAGAGGAACAGUUAGCCTT against Zfp553 | inactive: -0.24 |

| Sequence | z-score |
| --- | --- |
| GCCCAUCAGACUUCUACUUTT against Slc22a17 | inactive: -0.754 |
| GGCCUUUAGCACCUGUGUGTT against Olfr583 | inactive: -1.7 |
| GGUGCUAUGUGCGUUUGAUTT against 9830107B12Rik | inactive: 1.97 |
| GGAUCAAGCCGAACAGUUCTT against Pigk | active: 2.34 |
| GCUUAAGGAUCCAUAAUGUTT against Musk | inactive: 0.981 |
| CGACAAAAGCCACCUUUCGTT against Tm4sf4 | active: -2.62 |
| GCCCUAGCUUGUAUGGUUCTT against Rsad1 | inactive: 0.59 |
| GGCCUGGCUGUGGAAUUCATT against Pvt1 | inactive: 0.141 |
| GGCCAUUCUACUAACAGUATT against Tmed10 | inactive: -1.31 |
| CCAUCACUAGUGAUCAUUATT against Gm5115 | inactive: -1.7 |
| GGAUAGAGCACAGAUCCAGTT against St8sia5 | active: 2.38 |
| CCUAUAAGAUGUGCUCUAUTT against Carhsp1 | inactive: 0.823 |
| GCUUAUCGAAUUCUUCUCCTT against Cnpy2 | inactive: 0.417 |
| CCGCUAUCCUCUAUCUCCATT against Dhx34 | inactive: -0.436 |
| GGAGAAUCCUGUUUUUUGUTT against Elp4 | inactive: 0.43 |
| UGUCAGUGCAGAAUAGCACTT against Olfr658 | inactive: -1.17 |
| CCAUGAUUUACAAUACUACTT against Cebpg | inactive: -0.89 |
| GGUAUGUGGCAUUUAUUUGTT against Hif1a | inactive: 0.986 |
| CCUAUGAAUCUUACAGGACTT against Zfp955a | inactive: 0.313 |
| GGAACUUGGCCUACUUAUGTT against C130071C03Rik | inactive: 0.718 |
| GGCUGAACAAAGGUAGAGATT against Ccl1 | inactive: -0.499 |
| GUUGGAGUUGAGUGAUAUUTT against Krtap3-3 | inactive: -0.269 |
| GGUAUAAGGAAGGCCUUCUTT against Olfr186 | inactive: -1.65 |

Four entries from above, as comma-separated lines.
Sequence,z-score
CCGCUAUCCUCUAUCUCCATT against Dhx34,inactive: -0.436
GGAGAAUCCUGUUUUUUGUTT against Elp4,inactive: 0.43
UGUCAGUGCAGAAUAGCACTT against Olfr658,inactive: -1.17
CCAUGAUUUACAAUACUACTT against Cebpg,inactive: -0.89

Later entries:

| Sequence | z-score |
| --- | --- |
| GCUUCUGUGGGCAACAGUUTT against Cryba1 | inactive: 0.0577 |
| GGAAAUCCCACCUGUGCCATT against Col8a1 | inactive: 0.473 |
| GGCGAACACUGUUUGAAGCTT against Ercc5 | inactive: 0.294 |
| GCUACUUUCUAAGUGCCAUTT against Pdcd4 | inactive: -0.975 |
| GGUUCUGUUGUGUGAGGAGTT against Gimap1 | inactive: -0.824 |
| GCAAAGGAUUGUUAAACUATT against Manba | inactive: 1.49 |
| GGAUUUGGGCCCAUUUUUGTT against Cntn1 | inactive: 0.913 |
| GGUCAUCAACAGCAAAAACTT against Lin37 | inactive: -1.93 |
| CAGCUUGUGCUCGAGUAAATT against Gm3579 | inactive: -1.14 |
| GGGAGAUGGCGUGACAGAATT against Trappc3 | inactive: 0.503 |
| GGACUCAGAAUUUUUUUGUTT against Mllt3 | inactive: 0.193 |
| GCAUGUGGUUUCUAUAUAUTT against Sertad4 | inactive: -0.874 |
| GGUGGUGACAGCUGAACAATT against 4732465J04Rik | inactive: 0.21 |
| GGUCGCUUUGGCAUUAUGGTT against Mrpl22 | inactive: -0.373 |
| CCAAACCAGAAUGUUAAAATT against Fgf12 | inactive: -0.391 |
| GGCAUCUGUAAGAUGUACGTT against 1700018B24Rik | inactive: 1.32 |
| GUGGUUUCGGUGCUUGGGUTT against Svs3a | inactive: -0.516 |
| GGGUCUAAGAUGCAAACGCTT against Flt3l | inactive: -0.0742 |
| UUUAUACUUCCCUGAUUUUTT against Olfr943 | inactive: -0.409 |
| GCUGCUCCCUCUAAUAAAATT against Cbr1 | inactive: -0.913 |
| GCUAUGUUUAGGCACAAUATT against C130023O10Rik | inactive: -0.341 |
| GGAAUAUGAGUUUUCUCAGTT against Zfp68 | inactive: 0.125 |
